From article PMC12288454, “Functional consequences of genetic variations in DgoR, a GntR/FadR family transcriptional repressor of D-galactonate metabolism in Escherichia coli” (Journal of Bacteriology, 2025)

Legend:
Test in all cases: EMSA
DgoR WT = DgoR WT (UniProt P31460); details: 1.6 mM D-galactonate, 1 uM protein, binding completely abrogated; 10 nM DNA, 50 mM Tris pH 8.5, 10 mM MgCl2, 265 mM NaCl, 1 mM PMSF, 12% glycerol, 2 mM DTT, 1 ug herring sperm DNA per 20 uL, 27 C 30 min; recombinant protein; residues 1-229; protein details: C-terminal 6xHis; label: 5'-Cy5 on strand 1
DgoR A152E = DgoR A152E (UniProt P31460); details: 1.6 mM D-galactonate, 3.5 uM protein, binding completely abrogated; 10 nM DNA, 50 mM Tris pH 8.5, 10 mM MgCl2, 265 mM NaCl, 1 mM PMSF, 12% glycerol, 2 mM DTT, 1 ug herring sperm DNA per 20 uL, 27 C 30 min; recombinant protein; residues 1-229; protein details: C-terminal 6xHis; label: 5'-Cy5 on strand 1
DgoR R71C = DgoR R71C (UniProt P31460); details: 6.4 mM D-galactonate, 1 uM protein, DNA completely released; 10 nM DNA, 50 mM Tris pH 8.5, 10 mM MgCl2, 265 mM NaCl, 1 mM PMSF, 12% glycerol, 2 mM DTT, 1 ug herring sperm DNA per 20 uL, 27 C 30 min; recombinant protein; residues 1-229; protein details: C-terminal 6xHis; label: 5'-Cy5 on strand 1

Measured: binding result

GTGATCTAAATTGTAGTACAACAATATAAGTTTGTACTACATTACACGCACG (double strand) [dgo promoter probe GA149/GA150]
no binding: DgoR WT | DgoR A152E | DgoR R71C

A negative result means that nothing was seen under these conditions.
